Reference: PubChem BioAssay AID504834 (National Center for Advancing Translational Sciences (NCATS), 2011)
Screen size: about 320,000 compounds; about 22,000 (6.9%) were called active. Inconclusive means that the source gave no clear call. Such entries were picked first, then a sample of the others. The call rests on the fitted dose curve; in most records, active means well fitted inhibition curve with a large enough effect; inconclusive means small, poorly fitted or top-dose-only effect, or another doubt; inactive means no such curve, though single readings can be large or run the other way. A potency beside an inconclusive call is a rough fit, not a confirmed value.

Assay: Primary qHTS for delayed death inhibitors of the malarial parasite plastid, 96 hour incubation
Details: P. falciparum luciferase reporter growth; series mostly up to 28.7 µM
Summary of the method: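 96 h incubation, 37 C, 5% CO2, of luciferase-reporter P. falciparum-infected RBCs (2% hematocrit, 0.05% parasitemia final) with test compounds; endpoint luminescence.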
On the % scale 0 is the no-effect control and ±100 the full control effect; potency means the concentration at half of the fitted maximal effect.

Structure (SMILES)	Potency	activity change, negative = inhibition
CN1C(=S)SC(C)(C)C1(C)NO (stereo not drawn)	inconclusive: 18.5 µM [inhibitor, single point]	
CS(=O)(=O)N1CCC(Oc2ccccc2C(=O)N2CCC[C@H]2CO)CC1	inactive	
COc1ccc(-n2c(=S)[nH]c3cc(C(=O)N(C)Cc4ccccc4)ccc3c2=O)cc1	inconclusive: 11.7 µM [inhibitor, single point]	
COc1ccc(CNC(=O)C(c2ccco2)N(Cc2ccccc2)C(=O)Cc2cccs2)cc1 (stereo not drawn)	inconclusive: 10.4 µM [inhibitor, single point]	
COc1ccccc1NCC(=O)N/N=C/c1cccnc1	inconclusive: 18.5 µM [inhibitor, partial curve, poor fit]	
CC(=O)N(Cc1ccccc1C)c1cccc(C)c1C	inconclusive: 18.5 µM [inhibitor, partial curve, poor fit]	
COc1cccc(S(=O)(=O)NCc2ccc(C(=O)N3CCN(c4ccccc4OC)CC3)cc2)c1	inconclusive: 13.1 µM [inhibitor, partial curve]	
CN(C)CCNc1c2c(nc3ccccc13)CCC2	inconclusive: 16.5 µM [inhibitor, single point]	
CCCOc1ccc(C(O)CCNC(CC(=O)O)c2ccccc2)cc1 (stereo not drawn)	inconclusive: 11.7 µM [inhibitor, partial curve, poor fit]	
O=C(CN1C(=O)C2C3C=CC(C3)C2C1=O)NCC1COc2ccccc2O1 (stereo not drawn)	inconclusive: 1.04 µM [inhibitor, full curve]	
CN(C)CCCNc1ncnc2sc(-c3ccccc3)cc12	inconclusive: 11.7 µM [inhibitor, single point]	
O=C(NCc1cccc2[nH]ccc12)C1CCC(=O)N(CCc2ccccc2)C1 (stereo not drawn)	inconclusive: 18.5 µM [inhibitor, single point]	
O=C(CCC(=O)Nc1ccc(F)cc1)N/N=C/c1cccnc1	inactive	
Cc1ccc(C(C)C)cc1OCC(=O)NC1CCCCCCC1	inconclusive: 14.7 µM [inhibitor, single point]	
CN(CC(=O)Nc1ccccc1Cl)CC(=O)c1c(N)n(Cc2ccccc2)c(=O)n(C)c1=O	inconclusive: 4.15 µM [inhibitor, single point]	
COc1cccc(CN(Cc2ccco2)S(=O)(=O)c2ccc(S(=O)(=O)NCc3ccccc3)cc2)c1OC	inactive	
O=C1CCCN1Cc1ccccc1	inactive	
CCOC(=O)c1ccc(NC(=S)NNC(=O)COC)cc1	inconclusive: 18.5 µM [inhibitor, single point]	
O=C(c1ccc2c(c1)N(Cc1ccc(F)cc1)CCS2)N1CCC2(CC1)OCCO2	inconclusive: 18.5 µM [inhibitor, single point]	
C/C(=N\Nc1ccc(Cl)c(Cl)c1)c1ccc(-n2ccnc2)cc1	active: 4.65 µM	
Cc1ccc(C)c(S(=O)(=O)N2CCCC2CNC(=O)C(=O)NCc2ccccn2)c1 (stereo not drawn)	inactive	
CCc1n[nH]c(=O)n1Cn1c(CC)n[nH]c1=O	active: 10.4 µM	
CC(Oc1ccccc1)C(=O)N(CCC1=CCCCC1)c1c(N)n(Cc2ccccc2)c(=O)[nH]c1=O (stereo not drawn)	inconclusive: 18.5 µM [inhibitor, partial curve, poor fit]	
CCS(=O)(=O)N1CCN(C(=O)c2ccccc2[N+](=O)[O-])CC1		inactive: -31.9% [at 1.15 µM]

Among those listed so far, these have a thiophene ring, fused or not.
Structure (SMILES)	Potency	activity change, negative = inhibition
COc1ccc(CNC(=O)C(c2ccco2)N(Cc2ccccc2)C(=O)Cc2cccs2)cc1 (stereo not drawn)	inconclusive: 10.4 µM [inhibitor, single point]	
CN(C)CCCNc1ncnc2sc(-c3ccccc3)cc12	inconclusive: 11.7 µM [inhibitor, single point]	

The listing continues.

Structure (SMILES)	Potency	activity change, negative = inhibition
Cc1ccc(-c2cc(=O)c3cc(Cl)ccc3[nH]2)cc1	inactive	
COc1ccc(C(=O)CC2OC(=O)c3ccccc32)cc1OC (stereo not drawn)	inconclusive: 18.5 µM [inhibitor, single point]	
OC(CNCc1ccc(F)cc1)(c1ccccc1)c1ccc(F)cc1 (stereo not drawn)	active: 1.65 µM	
Cc1nccn1CCOc1ccc(Cl)cc1	inactive	
Cc1cc([N+](=O)[O-])ccc1NC(=O)c1ccc(NC(=O)C(C)C)cc1		inactive: 18% [at 5.75 µM]
COc1cccc(C2CC(c3cccs3)=NN2C(=O)CSC2=NCCS2)c1OC (stereo not drawn)	active: 6.57 µM	
C/C=C/C=C\C(=O)Nc1cccc(C2=NOC3(C2)C[C@H](C(N)=O)N(C(=O)CC#N)C3)c1 (stereo partly drawn)	inactive	
O=C(NCC(=O)N1CCCCCCC1)c1ccc(Cl)cc1	inactive	
COc1ccccc1-n1c(-c2cn(C)nc2C)n[nH]c1=S	inactive	
CCC(C)[C@H](NC(=O)C1CC(=O)N(c2ccc3c(c2)OCO3)C1)C(=O)NC1CCCCC1 (stereo partly drawn)	inactive	
COc1ccc(CN(C)C(=O)Cc2ccsc2)c(OC)c1OC	inconclusive: 8.28 µM [inhibitor, partial curve, poor fit]	
COc1cccc2c(=O)n(CC(=O)NC3CCCCC3)ccc12	inactive	
Cc1cc(C)c(C)c(S(=O)(=O)NCCCn2ccnc2)c1C	active: 6.57 µM	
O=C(NC(N1CCOCC1)C(Cl)(Cl)Cl)c1ccco1 (stereo not drawn)	inactive	
O=C(Nc1cc(S(=O)(=O)N2CCOCC2)ccc1Cl)C1CCC1	inactive	
COc1ccccc1OCC(=O)Nc1ccccc1C(=O)N1CCCC1	inconclusive: 5.22 µM [inhibitor, partial curve, poor fit]	
COc1ccc(N=Cc2c(O)c3ccccc3n2C(C)=O)cc1	inconclusive: 10.4 µM [inhibitor, single point]	
O=C(c1c(F)cccc1F)N1CCN(CCOc2ccccc2)CC1	inactive	
Cc1nnc(NC(=O)CSc2nccn2-c2ccc(F)cc2)s1	inconclusive: 0.0586 µM [inhibitor, full curve, poor fit]	
Oc1cccc(NC(=S)N=Nc2c(O)[nH]c3ccc(Br)cc23)c1	inconclusive: 5.22 µM [inhibitor, partial curve, poor fit]	
O=c1c2c3c(sc2ncn1/N=C/c1ccccc1)CCCC3	inactive	
CCOc1ccccc1NC(=O)CCNS(=O)(=O)c1ccc2[nH]c(=O)oc2c1	inconclusive: 16.5 µM [inhibitor, partial curve, poor fit]	
CCC(CC)C(=O)Nc1ccc(Nc2ccccc2)cc1	inactive	
CC(C)(C)N(Cc1ccccc1)C(=O)COC(=O)c1ccc([N+](=O)[O-])o1	inconclusive: 13.1 µM [inhibitor, single point]	
